Experimental data as given in article PMC8260207.
Results are given in words; binding and its absence hold for the method and conditions named. In cells and extracts the contact can be indirect. These calls come from enrichment with a bait or labelling near it, and not all partners need be listed.

The chains behind the UniProt entries cited, without tags or fusion partners.
UniProt Q8N9N2: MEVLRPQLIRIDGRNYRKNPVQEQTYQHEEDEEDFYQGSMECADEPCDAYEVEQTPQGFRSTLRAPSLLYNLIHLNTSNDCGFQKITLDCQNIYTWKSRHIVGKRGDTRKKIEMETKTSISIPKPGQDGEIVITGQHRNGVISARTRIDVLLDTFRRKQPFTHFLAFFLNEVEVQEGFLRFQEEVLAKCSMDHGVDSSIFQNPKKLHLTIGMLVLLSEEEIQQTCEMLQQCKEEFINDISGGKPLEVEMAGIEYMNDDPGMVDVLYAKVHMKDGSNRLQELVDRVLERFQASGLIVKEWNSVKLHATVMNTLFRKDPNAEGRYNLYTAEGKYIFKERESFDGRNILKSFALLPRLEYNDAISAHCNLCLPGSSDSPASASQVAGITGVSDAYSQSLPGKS
UniProt Q8N3C0: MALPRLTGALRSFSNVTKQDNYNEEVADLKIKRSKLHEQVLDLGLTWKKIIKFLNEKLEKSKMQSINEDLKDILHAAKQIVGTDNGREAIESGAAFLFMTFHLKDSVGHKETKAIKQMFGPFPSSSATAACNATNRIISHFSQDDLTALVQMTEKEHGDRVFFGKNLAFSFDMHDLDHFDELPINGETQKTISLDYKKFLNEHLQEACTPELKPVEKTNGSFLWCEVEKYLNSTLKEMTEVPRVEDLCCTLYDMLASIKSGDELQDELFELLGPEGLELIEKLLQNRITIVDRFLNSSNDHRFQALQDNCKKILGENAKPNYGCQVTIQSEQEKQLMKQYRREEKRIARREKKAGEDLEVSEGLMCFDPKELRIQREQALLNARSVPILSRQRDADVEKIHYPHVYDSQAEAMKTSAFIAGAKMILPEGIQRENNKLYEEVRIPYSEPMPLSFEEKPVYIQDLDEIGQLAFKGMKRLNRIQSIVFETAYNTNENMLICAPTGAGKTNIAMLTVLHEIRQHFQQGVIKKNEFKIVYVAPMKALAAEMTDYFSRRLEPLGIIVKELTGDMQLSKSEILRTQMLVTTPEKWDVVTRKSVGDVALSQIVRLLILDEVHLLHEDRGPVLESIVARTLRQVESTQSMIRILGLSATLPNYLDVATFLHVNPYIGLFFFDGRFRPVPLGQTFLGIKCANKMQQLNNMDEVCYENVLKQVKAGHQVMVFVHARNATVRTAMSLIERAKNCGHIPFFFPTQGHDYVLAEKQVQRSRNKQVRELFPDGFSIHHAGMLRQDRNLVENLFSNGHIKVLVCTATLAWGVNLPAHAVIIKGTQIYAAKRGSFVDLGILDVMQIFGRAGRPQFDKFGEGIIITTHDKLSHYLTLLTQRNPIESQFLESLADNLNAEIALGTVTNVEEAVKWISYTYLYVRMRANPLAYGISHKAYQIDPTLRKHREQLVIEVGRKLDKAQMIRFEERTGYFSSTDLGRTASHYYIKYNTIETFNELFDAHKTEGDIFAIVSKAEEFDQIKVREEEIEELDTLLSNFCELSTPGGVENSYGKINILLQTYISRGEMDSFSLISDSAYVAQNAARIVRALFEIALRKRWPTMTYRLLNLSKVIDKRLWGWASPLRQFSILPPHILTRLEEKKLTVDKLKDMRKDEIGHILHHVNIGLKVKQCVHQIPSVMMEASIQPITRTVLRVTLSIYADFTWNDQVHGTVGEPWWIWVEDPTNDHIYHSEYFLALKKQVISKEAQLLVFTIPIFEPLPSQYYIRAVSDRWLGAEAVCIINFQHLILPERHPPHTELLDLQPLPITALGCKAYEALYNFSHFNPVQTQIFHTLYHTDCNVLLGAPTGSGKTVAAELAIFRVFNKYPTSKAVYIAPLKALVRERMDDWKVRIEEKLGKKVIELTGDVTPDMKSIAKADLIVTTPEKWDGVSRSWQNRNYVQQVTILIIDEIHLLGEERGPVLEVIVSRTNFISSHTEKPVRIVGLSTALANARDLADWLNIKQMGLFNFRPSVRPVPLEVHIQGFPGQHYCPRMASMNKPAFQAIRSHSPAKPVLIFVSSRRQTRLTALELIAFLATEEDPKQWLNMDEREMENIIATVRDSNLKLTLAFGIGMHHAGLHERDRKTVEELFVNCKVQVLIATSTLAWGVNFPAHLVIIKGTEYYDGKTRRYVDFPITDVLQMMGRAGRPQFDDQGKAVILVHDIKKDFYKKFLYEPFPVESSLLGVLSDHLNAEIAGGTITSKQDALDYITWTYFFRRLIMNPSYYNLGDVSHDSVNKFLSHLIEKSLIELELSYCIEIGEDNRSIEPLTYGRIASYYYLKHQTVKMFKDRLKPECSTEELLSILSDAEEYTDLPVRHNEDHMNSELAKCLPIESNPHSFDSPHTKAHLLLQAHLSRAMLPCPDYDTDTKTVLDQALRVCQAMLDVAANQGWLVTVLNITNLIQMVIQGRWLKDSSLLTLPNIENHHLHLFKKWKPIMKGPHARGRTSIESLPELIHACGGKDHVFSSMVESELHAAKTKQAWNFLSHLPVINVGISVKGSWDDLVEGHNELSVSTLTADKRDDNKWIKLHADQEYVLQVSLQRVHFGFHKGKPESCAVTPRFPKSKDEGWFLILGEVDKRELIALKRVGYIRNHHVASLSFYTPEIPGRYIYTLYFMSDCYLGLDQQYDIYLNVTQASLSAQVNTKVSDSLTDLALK

How the values were obtained:
Assay in all cases: affinity purification with mass spectrometry; ANTI-FLAG M2 Affinity Gel against Protein G Agarose on whole cell extract (Benzonase, 150 mM NaCl) of Flp-In T-REx HEK293 cells expressing Flag-HA-tagged ASCC1, ASCC2 or ASCC3; elution with 3xFLAG peptide; SILAC
[1] = molecular target: ASCC1 (human (endogenous in HEK293)) (UniProt Q8N9N2)
[2] = molecular target: T1, ASCC2 (human (endogenous in HEK293)) (UniProt Q9H1I8)
T1 sequence: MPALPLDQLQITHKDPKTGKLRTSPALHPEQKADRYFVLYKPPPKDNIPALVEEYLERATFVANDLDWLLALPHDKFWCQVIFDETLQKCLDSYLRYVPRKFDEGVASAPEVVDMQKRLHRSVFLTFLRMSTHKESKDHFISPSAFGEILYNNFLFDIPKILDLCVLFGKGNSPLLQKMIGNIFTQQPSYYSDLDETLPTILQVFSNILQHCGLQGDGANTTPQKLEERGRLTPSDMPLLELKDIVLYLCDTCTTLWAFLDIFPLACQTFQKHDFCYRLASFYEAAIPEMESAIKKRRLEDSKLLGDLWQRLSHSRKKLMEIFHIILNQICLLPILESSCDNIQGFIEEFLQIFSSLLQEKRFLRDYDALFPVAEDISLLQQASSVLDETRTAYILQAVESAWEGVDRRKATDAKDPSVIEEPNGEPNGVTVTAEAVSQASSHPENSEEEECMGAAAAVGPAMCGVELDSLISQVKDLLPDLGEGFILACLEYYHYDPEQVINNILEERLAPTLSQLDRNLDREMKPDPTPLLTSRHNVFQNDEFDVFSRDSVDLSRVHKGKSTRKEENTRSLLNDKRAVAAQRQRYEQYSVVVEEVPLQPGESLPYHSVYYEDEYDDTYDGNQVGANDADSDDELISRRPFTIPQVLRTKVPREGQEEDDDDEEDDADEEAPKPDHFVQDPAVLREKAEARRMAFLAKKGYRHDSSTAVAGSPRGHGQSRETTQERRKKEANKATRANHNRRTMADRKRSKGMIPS

[3] = molecular target: ASCC3 (human (endogenous in HEK293)) (UniProt Q8N3C0)

ASCC3 (from UniProt Q8N3C0 1-2202)
binding [1]: binds
binding [2]: binds

B1: ASCC2 (protein, UniProt Q9H1I8 1-757)
chain: MPALPLDQLQITHKDPKTGKLRTSPALHPEQKADRYFVLYKPPPKDNIPALVEEYLERATFVANDLDWLLALPHDKFWCQVIFDETLQKCLDSYLRYVPRKFDEGVASAPEVVDMQKRLHRSVFLTFLRMSTHKESKDHFISPSAFGEILYNNFLFDIPKILDLCVLFGKGNSPLLQKMIGNIFTQQPSYYSDLDETLPTILQVFSNILQHCGLQGDGANTTPQKLEERGRLTPSDMPLLELKDIVLYLCDTCTTLWAFLDIFPLACQTFQKHDFCYRLASFYEAAIPEMESAIKKRRLEDSKLLGDLWQRLSHSRKKLMEIFHIILNQICLLPILESSCDNIQGFIEEFLQIFSSLLQEKRFLRDYDALFPVAEDISLLQQASSVLDETRTAYILQAVESAWEGVDRRKATDAKDPSVIEEPNGEPNGVTVTAEAVSQASSHPENSEEEECMGAAAAVGPAMCGVELDSLISQVKDLLPDLGEGFILACLEYYHYDPEQVINNILEERLAPTLSQLDRNLDREMKPDPTPLLTSRHNVFQNDEFDVFSRDSVDLSRVHKGKSTRKEENTRSLLNDKRAVAAQRQRYEQYSVVVEEVPLQPGESLPYHSVYYEDEYDDTYDGNQVGANDADSDDELISRRPFTIPQVLRTKVPREGQEEDDDDEEDDADEEAPKPDHFVQDPAVLREKAEARRMAFLAKKGYRHDSSTAVAGSPRGHGQSRETTQERRKKEANKATRANHNRRTMADRKRSKGMIPS
binding [1]: binds

B2: TRIP4 (protein, UniProt Q15650 1-581)
chain: MAVAGAVSGEPLVHWCTQQLRKTFGLDVSEEIIQYVLSIESAEEIREYVTDLLQGNEGKKGQFIEELITKWQKNDQELISDPLQQCFKKDEILDGQKSGDHLKRGRKKGRNRQEVPAFTEPDTTAEVKTPFDLAKAQENSNSVKKKTKFVNLYTREGQDRLAVLLPGRHPCDCLGQKHKLINNCLICGRIVCEQEGSGPCLFCGTLVCTHEEQDILQRDSNKSQKLLKKLMSGVENSGKVDISTKDLLPHQELRIKSGLEKAIKHKDKLLEFDRTSIRRTQVIDDESDYFASDSNQWLSKLERETLQKREEELRELRHASRLSKKVTIDFAGRKILEEENSLAEYHSRLDETIQAIANGTLNQPLTKLDRSSEEPLGVLVNPNMYQSPPQWVDHTGAASQKKAFRSSGFGLEFNSFQHQLRIQDQEFQEGFDGGWCLSVHQPWASLLVRGIKRVEGRSWYTPHRGRLWIAATAKKPSPQEVSELQATYRLLRGKDVEFPNDYPSGCLLGCVDLIDCLSQKQFKEQFPDISQESDSPFVFICKNPQEMVVKFPIKGNPKIWKLDSKIHQGAKKGLMKQNKAV
binding [1]: binds
binding [2]: binds
binding [3]: binds
